# Measurements as given in PubChem BioAssay AID1487 (National Center for Advancing Translational Sciences (NCATS), 2009).
# This is one part of the list. Shown are side measurements of this screen, not its main read-out; they come without a call. Compounds called inactive in the main read-out are mostly missing here. The note in brackets gives the kind of curve behind each potency; many fits are weak.
# Experiment: qHTS Assay for Modulators of Lamin A Splicing
# Conditions: HeLa LMNA splicing GFP/RFP minigene ratio, 48 h
# Procedure, shortened: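 S3 HeLa stable clones carrying a lamin A-EGFP splicing minigene plus DsRed2 were seeded at 600 cells/well in Opti-MEM with 2% FBS, pin-dosed and incubated 48 h at 37°C. Acumen cytometry (488 nm) gave the GFP/RFP total-intensity ratio.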
# [1] = measured here: RFP viability control channel
# [2] = measured here: GFP splicing reporter channel
SMILES,AC50 [1],AC50 [2]
c1ccc(CN2CCC(N=C3NN=C(c4ccc5c(c4)OCCO5)CS3)CC2)cc1,"14.1 µM [falling, single point]",
N=C(N)c1ccc(N)cc1,,"0.398 µM [falling, partial curve, poor fit]"
O=C(Nc1sc2c(c1C(=O)NCC1CCCO1)CCCC2)c1cccs1 (stereo not drawn),"28.2 µM [rising, single point]",
NC(=O)CSc1nnc(Cc2ccc3c(c2)OCO3)o1,"0.447 µM [falling, single point]",
CCCN(CCC)CCc1cccc2c1CC(=O)N2,"35.5 µM [falling, single point]","35.5 µM [falling, single point]"
O=C(CNc1cc(S(=O)(=O)N2CCCC2)ccc1OCC(F)(F)F)Nc1cccc(C(F)(F)F)c1,"8.91 µM [rising, partial curve]",
CC(=O)c1ccc(Nc2cc(C)nc3nc(C)nn23)cc1,"3.98 µM [rising, single point]",
COc1cccc(CNC(=O)C(=O)NCC(c2cccs2)S(=O)(=O)c2ccccc2)c1 (stereo not drawn),"35.5 µM [falling, partial curve, poor fit]",
Oc1ccc(/C=N/Nc2nc(-c3ccc(Cl)cc3)cc(C(F)(F)F)n2)cc1,"12.6 µM [rising, partial curve]","14.1 µM [rising, single point]"
Cc1ccc2[nH]c(=O)c(C3C(C#N)=C(N)Oc4c3ccc3cccnc43)cc2c1 (stereo not drawn),"25.1 µM [rising, single point]",
O=C1CC(=C(c2ccccc2)c2ccccc2)C(=O)N1CCN1CCN(c2cccc(Cl)c2)CC1,"12.6 µM [rising, single point]",
Cc1ccccc1Cn1c(-c2cncs2)nc2ccccc21,,"31.6 µM [rising, single point]"
COc1ccc2c(c1)OC(O)(C(F)(F)C(F)F)CC2=O (stereo not drawn),"14.1 µM [rising, partial curve]",
CCCCN=C(N)N=C(N)N,"3.16 µM [falling, partial curve, poor fit]","35.5 µM [falling, single point]"
COc1ccc2cc(C3C(C#N)=C(N)OC(C)=C3C(C)=O)c(Cl)nc2c1 (stereo not drawn),,"15.8 µM [falling, partial curve, poor fit]"
COC(=O)[C@@]1(Cc2ccc(F)cc2)[C@H]2c3cc(C(=O)N(C)C)n(Cc4ccc(OC(F)(F)F)cc4)c3C[C@H]2CN1C(=O)c1ccccc1,"35.5 µM [rising, single point]",
CC(C)CC(=O)NCC(c1ccc2c(c1)OCO2)N1CCN(c2ccccc2)CC1 (stereo not drawn),,"0.316 µM [falling, partial curve]"
CS(=O)(=O)NNC(=O)c1sccc1OCc1ncc(C(F)(F)F)cc1Cl,,"12.6 µM [rising, partial curve]"
COc1ccc(C2C(C(=O)Nc3ccccc3)=C(C)Nc3nc(CCCO)nn32)cc1 (stereo not drawn),"0.00708 µM [falling, full curve, poor fit]",

SMILES,AC50 [1],AC50 [2]
CCOC(=O)c1oc2ccccc2c1NC(=O)c1ccccc1OC,,"35.5 µM [falling, single point]"
COc1ccc(C(=O)C2CCCN(Cc3cn[nH]c3-c3ccc(F)cc3)C2)cc1OC (stereo not drawn),,"35.5 µM [falling, single point]"
Cc1cc(NCCCn2ccnc2)n2ncc(-c3ccccc3)c2n1,,"35.5 µM [rising, single point]"
Cc1cccc(-n2c(SCc3ccc(C#N)cc3)nnc2-c2c[nH]c3ccccc23)c1,"35.5 µM [rising, single point]",
Cc1ccc(-n2ncc3c(N4CCCCCC4)ncnc32)cc1Cl,,"0.158 µM [falling, full curve, poor fit]"
CCOc1ccc(S(=O)(=O)NCc2ccc(C)cc2)c2cccnc12,"0.355 µM [falling, partial curve, poor fit]","35.5 µM [rising, single point]"
N#Cc1ccccc1NC(=O)CSc1nnc(-c2ccc(F)cc2)n1-c1ccccc1,"14.1 µM [rising, single point]","12.6 µM [rising, single point]"
O=S(=O)(Nc1cccc2c1CCCC2)c1ccc(Cl)cc1,"14.1 µM [rising, partial curve, poor fit]",
COc1c(N2C[C@@H]3CCCN[C@H]3C2)c(F)cc2c(=O)c(C(=O)O)cn(C3CC3)c12,,"20 µM [falling, single point]"
Cc1ccc(C(=O)N/N=C/c2nc3ccccc3n2C)cc1,,"11.2 µM [falling, single point]"
COc1cccc2[nH]c3c(N4CCCC(C)C4)ncnc3c12 (stereo not drawn),"20 µM [rising, partial curve, poor fit]","8.91 µM [rising, partial curve]"
COc1ccc(CC(=O)NCC(c2cccs2)S(=O)(=O)c2ccc(F)c(C)c2)cc1 (stereo not drawn),"25.1 µM [falling, partial curve, poor fit]",
Cc1cnc(CNc2nc(-c3ccc(N(C)C)cc3)nc3ccccc23)cn1,"35.5 µM [falling, single point]","35.5 µM [falling, single point]"
O=C(Nc1ccc(Cl)cn1)C1CCCN1S(=O)(=O)c1cccc2ccccc12 (stereo not drawn),"15.8 µM [rising, single point]",
O=C(NCc1ccc2c(c1)OCO2)c1sccc1Br,,"0.00447 µM [falling, full curve, poor fit]"
COC(=O)c1ccc(CNC(=O)COC(=O)Cc2ccsc2)cc1,"0.00501 µM [falling, full curve, poor fit]",
Cc1cc(NC(=O)CSc2nnc(-c3ccccc3)o2)no1,"15.8 µM [rising, partial curve]","14.1 µM [rising, partial curve]"
Cc1ccc2cc3c(N)c4c(C)ccc(C)c4nc3nc2c1,,"35.5 µM [falling, single point]"
C=CCSc1nc(N)c2c(C)c(C)sc2n1,"35.5 µM [rising, single point]",

# 3 entries drawn at random from the list so far, as already listed:
SMILES,AC50 [1],AC50 [2]
Oc1ccc(/C=N/Nc2nc(-c3ccc(Cl)cc3)cc(C(F)(F)F)n2)cc1,"12.6 µM [rising, partial curve]","14.1 µM [rising, single point]"
COC(=O)[C@@]1(Cc2ccc(F)cc2)[C@H]2c3cc(C(=O)N(C)C)n(Cc4ccc(OC(F)(F)F)cc4)c3C[C@H]2CN1C(=O)c1ccccc1,"35.5 µM [rising, single point]",
Cc1ccccc1Cn1c(-c2cncs2)nc2ccccc21,,"31.6 µM [rising, single point]"

# The results go on.

SMILES,AC50 [1],AC50 [2]
COc1ccccc1CN1C(=O)CN(C2CCCC2)C(=O)C1c1ccc(F)cc1 (stereo not drawn),"11.2 µM [rising, single point]","12.6 µM [rising, single point]"
Cc1ccc2onc(CC(=O)N3CCN(c4cccc(Cl)c4)CC3)c2c1,,"12.6 µM [falling, partial curve, poor fit]"
Cc1cc(F)ccc1NC(=O)Cn1cc(S(=O)(=O)NC(C)C)c(S(=O)(=O)NC(C)C)c1,,"0.00282 µM [rising, full curve, poor fit]"
COc1cc2c(cc1NCc1ccc3c(c1)OCO3)oc1ccccc12,"10 µM [rising, single point]",
CN(C)CCCO[C@H]1[C@@H]2OC(C)(C)O[C@@H]2O[C@@H]1[C@H](O)CO,"7.94 µM [falling, single point]","11.2 µM [falling, single point]"
C=C(C)[C@@H]1CC=C(CN2CCC(N3CCC(C(=O)N4CCCC4)CC3)CC2)CC1,,"31.6 µM [falling, single point]"
Cc1cc(SC#N)cc(C)c1NC(=O)CCl,"35.5 µM [falling, single point]","35.5 µM [falling, single point]"
Cc1ccc(S(=O)(=O)N(CC(=O)N2CCc3ccccc3C2)c2cccc(Cl)c2)cc1,,"0.0891 µM [rising, full curve, poor fit]"
COc1ccc(NC(=O)CNC(=O)Cn2c(C)cc3ccccc3c2=O)c(OC)c1,"0.891 µM [falling, full curve, poor fit]",
Cc1cc(C(=O)NNC(=S)NCc2ccccc2)cs1,"12.6 µM [rising, single point]",
COc1ccc(C2NCCc3c2[nH]c2ccccc32)cc1CSc1nc2ccccc2s1 (stereo not drawn),"22.4 µM [rising, single point]",
Cc1cccc2cc(CN(CC3CCCO3)C(=O)c3ccco3)c3nnnn3c12 (stereo not drawn),"8.91 µM [falling, partial curve]","7.08 µM [falling, full curve, poor fit]"
CCOc1ccc(C(=O)Nc2nnc(SCc3cc(=O)n4ccccc4n3)s2)cc1,,"0.0224 µM [rising, full curve, poor fit]"
O=C(CN1C2=NCCCN2c2ccccc21)c1ccc(Br)s1,"20 µM [rising, single point]",
N#CC(C#N)=C(Nc1ccc(F)cc1)SCc1cccc(Br)c1,"6.31 µM [rising, full curve]","5.01 µM [rising, full curve]"
O=C(Nn1c(-c2ccc(Br)cc2)nc2ccccc2c1=O)c1cccnc1,"1.26 µM [rising, single point]","1.26 µM [rising, single point]"
CC(NC(=S)NCCc1ccccc1)C(c1cccs1)N1CCN(Cc2ccccc2)CC1 (stereo not drawn),"12.6 µM [rising, partial curve]",
CCc1nnc(NC(=O)CSc2nc3c([nH]c4ccccc43)c(=O)n2-c2ccc(Cl)cc2)s1,"15.8 µM [falling, partial curve]","6.31 µM [falling, partial curve, poor fit]"
CCOC(=O)C1=C(CSc2nc3ccccc3s2)NC(=O)NC1c1ccc(OC)cc1 (stereo not drawn),"22.4 µM [falling, single point]","10 µM [falling, partial curve]"
